Source: publication PMC3335879, “Selective Inhibitors of Protozoan Protein N-myristoyltransferases as Starting Points for Tropical Disease Medicinal Chemistry Programs” (PLoS Neglected Tropical Diseases, 2012)

System: L. donovani NMT
Format: biochemical
Conditions: selectivity for Ldon NMT over Pfal NMT derived from IC50 values
Experimental: Recombinant P. falciparum (Swiss-Prot Q81LW6) and L. donovani NMTs (EMBL accession number FN555136) were produced at the University of York, using established protocols. An assay format based on scintillation proximity technology to monitor enzyme activity was used as previously described, [30].
The Pfizer Global Diverse Representative Set consisting of 150,000 compounds was screened at 20 µM final assay concentration. Assay plates were prepared by dispensing 0.1 µL of compound dissolved in DMSO using the Vario system (Cybio) into white 384-well plates (Greiner Bio-One).
The reaction was initiated by adding 10 µL of the substrate mixture to each well containing the pre-incubated enzyme/compound mixture, and allowed to proceed at RT for 80 min. The reaction was quenched by the addition 20 µl of stop solution to each well. Stop solution consisted of 0.75 M MgCl2 (Sigma), 0.1 M phosphoric acid (Sigma) and 1 mg/ml of streptavidin-coated polystyrene SPA beads (Perkin-Elmer). Plates were sealed using topseals (Perkin-Elmer) and left overnight to allow the bead solution to settle. Radioactive counts were measured with an integration time of 300 sec per plate using the Leadseeker Generation 4 plate reader (GE Healthcare). […] The data were analysed using Pfizer SIGHTS software and visualised using Spotfire software (TIBCO).

Cc1cc2nc(N(C)C3CCN(C)CC3)nc(N(C)CCC#N)c2s1 [PF-00349412]
Ldon/Pfal Sel: 82
